From paper PMC11236980, “PARG is essential for Polθ-mediated DNA end-joining by removing repressive poly-ADP-ribose marks”
Results are given in words; binding and its absence hold for the method and conditions named. In cells and extracts the contact can be indirect. A yes stands for co-enrichment or nearness to the bait. Other partners may have been found.

Chains of the proteins cited; added tags and fusions are not shown.
UniProt O75417: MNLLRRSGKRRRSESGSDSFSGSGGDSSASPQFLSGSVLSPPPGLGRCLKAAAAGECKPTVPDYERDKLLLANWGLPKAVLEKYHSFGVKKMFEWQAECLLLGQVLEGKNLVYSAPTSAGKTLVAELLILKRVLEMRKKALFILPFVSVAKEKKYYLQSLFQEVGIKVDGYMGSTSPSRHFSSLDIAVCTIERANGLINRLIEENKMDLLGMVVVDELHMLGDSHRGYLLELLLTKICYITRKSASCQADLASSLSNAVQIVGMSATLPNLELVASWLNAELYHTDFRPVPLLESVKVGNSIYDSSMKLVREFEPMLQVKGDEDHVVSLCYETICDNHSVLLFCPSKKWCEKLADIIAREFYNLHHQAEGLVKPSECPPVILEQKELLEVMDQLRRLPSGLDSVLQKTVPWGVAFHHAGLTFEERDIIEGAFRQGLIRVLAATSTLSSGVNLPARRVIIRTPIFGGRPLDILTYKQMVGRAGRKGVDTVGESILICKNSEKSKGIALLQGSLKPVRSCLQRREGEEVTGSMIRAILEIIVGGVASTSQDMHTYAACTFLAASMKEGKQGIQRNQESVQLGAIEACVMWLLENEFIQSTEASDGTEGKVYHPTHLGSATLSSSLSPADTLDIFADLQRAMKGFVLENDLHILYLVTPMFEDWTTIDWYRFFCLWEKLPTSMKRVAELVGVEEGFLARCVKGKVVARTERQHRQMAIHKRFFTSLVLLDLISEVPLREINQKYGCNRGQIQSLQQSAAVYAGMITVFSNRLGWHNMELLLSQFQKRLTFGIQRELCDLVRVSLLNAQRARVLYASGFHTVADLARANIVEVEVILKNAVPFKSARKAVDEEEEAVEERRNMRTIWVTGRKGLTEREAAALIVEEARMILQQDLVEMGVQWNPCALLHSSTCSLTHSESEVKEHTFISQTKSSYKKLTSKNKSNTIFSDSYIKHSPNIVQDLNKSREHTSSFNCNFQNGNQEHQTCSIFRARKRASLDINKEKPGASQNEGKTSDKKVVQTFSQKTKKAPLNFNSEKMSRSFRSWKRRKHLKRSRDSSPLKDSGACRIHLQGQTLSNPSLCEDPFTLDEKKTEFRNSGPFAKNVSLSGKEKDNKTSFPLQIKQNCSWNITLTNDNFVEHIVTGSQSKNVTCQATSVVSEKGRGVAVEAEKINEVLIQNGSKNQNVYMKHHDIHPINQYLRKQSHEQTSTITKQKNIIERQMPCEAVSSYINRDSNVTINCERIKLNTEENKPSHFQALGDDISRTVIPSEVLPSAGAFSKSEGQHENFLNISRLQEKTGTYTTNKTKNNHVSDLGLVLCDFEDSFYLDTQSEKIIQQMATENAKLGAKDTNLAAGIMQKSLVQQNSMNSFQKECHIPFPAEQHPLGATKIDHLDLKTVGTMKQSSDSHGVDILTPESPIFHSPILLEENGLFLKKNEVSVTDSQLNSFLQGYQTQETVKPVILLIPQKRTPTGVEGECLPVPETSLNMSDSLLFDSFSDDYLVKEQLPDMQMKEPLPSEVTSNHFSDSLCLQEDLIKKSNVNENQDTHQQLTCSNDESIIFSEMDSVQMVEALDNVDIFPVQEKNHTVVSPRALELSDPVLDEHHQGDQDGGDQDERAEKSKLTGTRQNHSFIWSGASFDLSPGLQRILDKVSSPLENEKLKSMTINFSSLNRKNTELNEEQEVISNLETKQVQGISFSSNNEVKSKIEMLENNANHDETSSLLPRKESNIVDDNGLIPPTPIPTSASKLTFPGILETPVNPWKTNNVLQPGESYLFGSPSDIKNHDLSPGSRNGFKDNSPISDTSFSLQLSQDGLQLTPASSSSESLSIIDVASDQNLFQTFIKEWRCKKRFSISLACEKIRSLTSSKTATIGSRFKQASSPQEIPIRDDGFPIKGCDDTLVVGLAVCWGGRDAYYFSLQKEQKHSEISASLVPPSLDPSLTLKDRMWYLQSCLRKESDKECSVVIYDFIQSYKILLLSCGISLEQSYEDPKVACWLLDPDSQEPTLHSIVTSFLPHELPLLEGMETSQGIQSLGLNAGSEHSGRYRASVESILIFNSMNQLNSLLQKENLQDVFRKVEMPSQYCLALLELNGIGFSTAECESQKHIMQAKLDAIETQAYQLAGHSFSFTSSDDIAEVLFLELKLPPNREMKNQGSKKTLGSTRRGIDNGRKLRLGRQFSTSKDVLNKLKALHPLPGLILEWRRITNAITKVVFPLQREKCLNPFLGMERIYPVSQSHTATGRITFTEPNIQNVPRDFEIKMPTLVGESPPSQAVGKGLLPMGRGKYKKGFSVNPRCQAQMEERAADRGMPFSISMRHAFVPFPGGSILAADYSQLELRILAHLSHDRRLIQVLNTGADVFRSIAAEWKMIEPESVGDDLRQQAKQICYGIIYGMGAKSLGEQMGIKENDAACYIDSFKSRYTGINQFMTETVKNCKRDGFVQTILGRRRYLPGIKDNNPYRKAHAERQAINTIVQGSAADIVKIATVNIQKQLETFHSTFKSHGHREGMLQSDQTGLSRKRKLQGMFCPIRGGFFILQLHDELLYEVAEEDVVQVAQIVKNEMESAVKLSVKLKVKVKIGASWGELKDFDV
UniProt P09874: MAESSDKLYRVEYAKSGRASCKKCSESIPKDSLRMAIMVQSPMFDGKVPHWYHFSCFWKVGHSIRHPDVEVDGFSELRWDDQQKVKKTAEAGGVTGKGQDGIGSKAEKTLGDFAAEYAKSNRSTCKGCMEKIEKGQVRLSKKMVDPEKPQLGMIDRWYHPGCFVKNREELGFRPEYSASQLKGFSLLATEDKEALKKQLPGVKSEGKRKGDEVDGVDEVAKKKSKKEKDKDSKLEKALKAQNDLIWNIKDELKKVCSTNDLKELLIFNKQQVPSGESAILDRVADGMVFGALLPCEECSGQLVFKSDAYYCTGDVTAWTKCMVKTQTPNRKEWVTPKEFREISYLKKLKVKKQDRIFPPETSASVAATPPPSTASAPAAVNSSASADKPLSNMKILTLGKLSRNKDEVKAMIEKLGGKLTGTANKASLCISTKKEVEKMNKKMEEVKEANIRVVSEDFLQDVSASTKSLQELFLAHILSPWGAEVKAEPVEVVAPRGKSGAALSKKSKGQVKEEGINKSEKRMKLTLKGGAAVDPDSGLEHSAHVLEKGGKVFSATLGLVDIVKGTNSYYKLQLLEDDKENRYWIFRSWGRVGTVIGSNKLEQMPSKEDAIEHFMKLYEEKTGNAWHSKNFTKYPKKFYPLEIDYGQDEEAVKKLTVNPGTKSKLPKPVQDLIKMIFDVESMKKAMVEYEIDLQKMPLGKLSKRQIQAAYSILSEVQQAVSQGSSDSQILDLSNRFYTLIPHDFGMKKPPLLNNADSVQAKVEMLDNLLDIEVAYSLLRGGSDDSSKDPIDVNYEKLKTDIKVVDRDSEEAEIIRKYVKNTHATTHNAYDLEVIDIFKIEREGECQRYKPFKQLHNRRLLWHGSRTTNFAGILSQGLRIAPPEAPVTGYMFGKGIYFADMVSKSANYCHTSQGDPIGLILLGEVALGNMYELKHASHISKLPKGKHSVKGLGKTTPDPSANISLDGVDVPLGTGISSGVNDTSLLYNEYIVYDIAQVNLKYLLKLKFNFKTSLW

Molecular target: Polθ-FLAG-HA fusion protein (DNA polymerase theta) (human) (UniProt O75417)
Test: affinity purification with mass spectrometry; anti-HA immunoprecipitate from 293T cells expressing Polθ-FLAG-HA, analysed by LC-MS/MS

## Poly(ADP-ribose) polymerase 1 (PARP1) (from UniProt P09874 1-1014)
  binding: binds
